# Small-molecule microarray binding calls

Oligonucleotides screened, 5′ to 3′:
TPP: TPP riboswitch RNA three-way junction, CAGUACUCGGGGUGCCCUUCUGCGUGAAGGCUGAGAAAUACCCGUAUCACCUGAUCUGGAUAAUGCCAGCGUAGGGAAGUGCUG. About 24,000 compounds screened, about 160 hits.
PreQ1: PreQ1 riboswitch RNA pseudoknot, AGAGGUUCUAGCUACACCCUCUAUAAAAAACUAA. From B. subtilis. About 24,000 compounds screened, about 170 hits.
SAM-II: SAM-II riboswitch RNA pseudoknot, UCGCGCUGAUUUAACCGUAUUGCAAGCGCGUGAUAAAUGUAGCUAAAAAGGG. About 21,000 compounds screened, about 200 hits.

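The test is a small-molecule microarray: each compound is printed twice on a reactive slide, and binding shows as fluorescence of the labelled oligonucleotide after washing. For the PreQ1, TPP and SAM-II riboswitches the laboratory earlier reported (doi:10.1038/s41467-019-09493-3) 1 µM RNA, 2 h, and a rule that included a mean Z-score above 3 (spot signal-to-noise against the whole library), a score well above that on a control array, and duplicate spots agreeing (coefficient of variation under 100). The data file gives only the calls; its cut-offs may differ, and compounds hitting several targets are kept. The calls come from the array alone, and fixing a compound to the slide can hide its binding.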
A compound is marked active if it was called a hit and inactive if it was screened but was not.
This is an unselected part of the compounds tested.
A dash means that no call is listed here.

compound | TPP | PreQ1 | SAM-II
O=C(COc1ccc(CNc2cccc3cccnc23)cc1)N1CCOCC1 | inactive | inactive | inactive
CCCCNc1cc(=O)n(C)c(=O)n1C | inactive | inactive | inactive
COc1cccc([C@H]2CN(C(=O)C3CCN(Cc4ccco4)CC3)C[C@@H]2N)c1 | inactive | inactive | inactive
CN1CCN(c2cc(N3CC(C)(C)[C@@](C)(O)C3)nc(N)n2)CC1 | inactive | inactive | inactive
Cc1cc(-c2c(-c3ccccc3)ncn2CCN2CCCC(CO)C2)[nH]n1 (centres undefined) | inactive | inactive | inactive
S=c1[nH]ccn1-c1ccccc1Cl | inactive | inactive | inactive
Cc1oc2c(c(C)nn2-c2ccccc2)c(=O)c1Cl | inactive | inactive | inactive
Cc1cc(C(=O)N2C[C@@H](CN3CCCN(C)CC3)C[C@H](CO)C2)c(C)o1 | inactive | inactive | inactive
C[C@H]1O[C@@H](n2cc(F)c(=O)[nH]c2=O)[C@H](O)[C@H]1O | inactive | inactive | inactive
COc1ccc(CN(C)CC2(CO)CCC2)cc1O | inactive | inactive | inactive
OCCCc1nc2ccccc2n1Cc1cccc(Cl)c1 | inactive | inactive | -
O=C(c1ccc(NCCc2ccccc2)c([N+](=O)[O-])c1)N1CCCc2ccccc21 | inactive | inactive | inactive
NNC(=O)CNc1cccc(Br)c1 | inactive | inactive | inactive
O=C(Nc1ccc(Br)cc1F)c1nccnc1CO | inactive | inactive | inactive
COc1cc(CN2CCN(c3nccc(OC)n3)CC2CCO)cc(OC)c1 (centres undefined) | inactive | inactive | inactive
CC(O)C1C(=O)N2C(C(=O)O)=C(SC3CNC(C(=O)N(C)C)C3)C(C)C12 (centres undefined) | inactive | inactive | inactive
CN1CCN(Cc2ccc3ccn(Cc4ccccc4)c3c2)CC1CO (centres undefined) | inactive | inactive | inactive
OCCCc1nc2ccccc2n1CCCOc1ccccc1 | inactive | inactive | inactive
Cc1ccc2[nH]cc(-c3ccc(CN)s3)c2c1 | inactive | inactive | inactive
C=CCC1(CO)CCCN(Cc2cnc(-c3cccs3)nc2)C1 (centres undefined) | inactive | inactive | inactive
Clc1cccc(-c2noc3ncnc(NC4CCCCC4)c23)c1 | inactive | inactive | inactive
CN(C)c1ccc(NCc2cccc(Br)c2)cc1 | inactive | inactive | inactive
COc1cccc(CNc2cc(C(C)C)nc3nc(-c4cccnc4)nn23)c1 | inactive | inactive | -
CCOC(=O)N1CCN(c2c(NCCc3ccccc3)c(=O)c2=O)CC1 | inactive | inactive | -
COCCn1cnnc1C(C)N (centres undefined) | inactive | inactive | inactive
FC(F)(F)CCc1ccnc(N2C[C@H]3CNC[C@H]3C2)n1 | inactive | inactive | inactive
COc1ccc(CNCc2ccccc2OC)cc1Br | inactive | inactive | inactive
CCC1=C(C)C=[N+]=C(N(C)CC(O)COC)N1 (centres undefined) | inactive | inactive | inactive
COCCC1(CO)CCCN(Cc2nc[nH]c2C)C1 (centres undefined) | inactive | inactive | inactive
c1ccc2c(c1)CCN2CCCn1ccnc1-c1cn(C2CCNCC2)nn1 | inactive | inactive | inactive
FC(F)(F)c1ccccc1CNCCc1c[nH]c2ccccc12 | inactive | inactive | inactive
Cc1cc(C(=O)N2CCCC3(C=Cc4ccccc4O3)CC2)nc(N)n1 (centres undefined) | inactive | inactive | inactive
O=C1C=C(NCc2ccc3c(c2)OCO3)CC(c2ccccc2)C1 (centres undefined) | inactive | inactive | inactive
COc1ccc(-c2c(C)nn3c(NCc4ccc(F)cc4)cc(C)nc23)cc1OC | inactive | inactive | inactive
Cn1ncc(N2CCC(CNC(=O)Cn3nnnc3N)C2)cc1=O (centres undefined) | inactive | inactive | inactive
O=C(CC1COCCN1)Nc1cccc2c1CCCC2 (centres undefined) | inactive | inactive | inactive
Cc1ccc(-c2c(Nc3ccccc3Cl)c(=O)c2=O)cc1C | inactive | inactive | -
CC1=C(C(=O)c2ccccc2)C2(C(=O)Nc3ccccc32)C(C#N)=C(N)O1 (centres undefined) | inactive | inactive | inactive
CC(=O)c1nnn(-c2nc(N)nc(N(c3ccccc3)c3ccccc3)n2)c1C | inactive | inactive | inactive
CC(C)N[C@@H]1CCn2c(=O)[nH]c3cccc(c32)[C@@H]1O | inactive | inactive | inactive
CCC1(C)CC(CCN)(c2ccc(C)cc2)CCO1 (centres undefined) | inactive | inactive | inactive
CC(NCc1ccc(S(N)(=O)=O)cc1)C(=O)NC1CCCC1 (centres undefined) | inactive | inactive | inactive
CCCCN1CCC(CNC(=O)c2c3n(c4ccccc24)CCCO3)CC1 | inactive | inactive | inactive
O=C(c1ccccc1)C1N=NCC1c1ccc(Cl)cc1 (centres undefined) | inactive | inactive | inactive
Cc1ccc(C(C)NC(=O)CNCCCn2ccnc2)cc1 (centres undefined) | inactive | inactive | inactive
CCOC(=O)c1c(C)nc(C)c(C(=O)OCC)c1-c1ccc(OC)cc1 | inactive | inactive | inactive
O=C1c2ccccc2C(=O)c2c1cccc2N1CCNCC1 | inactive | inactive | inactive
Nc1ccc2c3c([nH]c2c1)C(=O)CCC3 | inactive | inactive | inactive
Nc1ccc(-n2cc(C(=O)O)cn2)cc1 | inactive | inactive | inactive
O=C(CCc1nc2cc(F)ccc2[nH]1)NCc1cc2n(n1)CCCNC2 | inactive | inactive | inactive
Cc1ccc(-c2nc3cnccn3c2Nc2ccc(C(=O)N3CCOCC3)cc2)cc1 | inactive | inactive | -
COc1cc(CNC(=O)CCCCC=CC(C)C)ccc1O | inactive | inactive | inactive
Cc1cc(Nc2ccccc2C)n2nc(Cc3ccccc3)nc2n1 | inactive | inactive | -
OCCn1nc(C2CCOCC2)nc1-c1ccc(-c2ccccc2Cl)o1 | inactive | inactive | inactive
Cn1cc(C=CC(=O)c2cccc(F)c2)cc1C=CC(=O)NO | inactive | inactive | inactive
O=C(Nc1ccc(CO)cc1)c1ccc(CN2CC=CC2)cc1 | inactive | inactive | inactive
COc1ccc(CCN[C@H]2CS(=O)(=O)C[C@@H]2S(=O)(=O)c2ccc(F)cc2)cc1 | inactive | inactive | -
COc1ccccc1CC(C)N(C)C(=O)c1cnn2cc(CCO)cnc12 (centres undefined) | inactive | inactive | inactive
COc1cc(C2C(C#N)=C(N)OC3=C2C(=O)CCC3)ccc1OC(C)=O (centres undefined) | inactive | inactive | inactive
Cc1nc([C@H]2CC[C@H]3[C@@H]4CCC5=CC(=O)CC[C@]5(C)[C@H]4CC[C@]23C)cs1 | inactive | inactive | inactive
Cc1nc(CCN)cc(NCc2ccc(-n3cncn3)cc2)n1 | inactive | inactive | inactive

The first 7 entries again:

| compound | TPP | PreQ1 | SAM-II |
|---|---|---|---|
| `O=C(COc1ccc(CNc2cccc3cccnc23)cc1)N1CCOCC1` | inactive | inactive | inactive |
| `CCCCNc1cc(=O)n(C)c(=O)n1C` | inactive | inactive | inactive |
| `COc1cccc([C@H]2CN(C(=O)C3CCN(Cc4ccco4)CC3)C[C@@H]2N)c1` | inactive | inactive | inactive |
| `CN1CCN(c2cc(N3CC(C)(C)[C@@](C)(O)C3)nc(N)n2)CC1` | inactive | inactive | inactive |
| `Cc1cc(-c2c(-c3ccccc3)ncn2CCN2CCCC(CO)C2)[nH]n1` (centres undefined) | inactive | inactive | inactive |
| `S=c1[nH]ccn1-c1ccccc1Cl` | inactive | inactive | inactive |
| `Cc1oc2c(c(C)nn2-c2ccccc2)c(=O)c1Cl` | inactive | inactive | inactive |

Data from the ROBIN nucleic acid binder screens, doi:10.1002/anie.202211358.